Source: PMC12329634
Results are given in words; binding and its absence hold for the method and conditions named. In cells and extracts the contact can be indirect. Some entries that bind do so weakly or less than the wild type.

Sequences of proteins named here, by UniProt entry; tags and fusion partners are left off.
UniProt P63159: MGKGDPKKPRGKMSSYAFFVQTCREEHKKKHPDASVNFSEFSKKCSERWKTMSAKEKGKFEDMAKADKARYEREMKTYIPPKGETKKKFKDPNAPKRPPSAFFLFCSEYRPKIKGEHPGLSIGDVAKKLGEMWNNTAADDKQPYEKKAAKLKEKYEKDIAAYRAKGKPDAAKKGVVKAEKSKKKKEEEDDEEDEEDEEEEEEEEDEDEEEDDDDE
UniProt Q91XJ1: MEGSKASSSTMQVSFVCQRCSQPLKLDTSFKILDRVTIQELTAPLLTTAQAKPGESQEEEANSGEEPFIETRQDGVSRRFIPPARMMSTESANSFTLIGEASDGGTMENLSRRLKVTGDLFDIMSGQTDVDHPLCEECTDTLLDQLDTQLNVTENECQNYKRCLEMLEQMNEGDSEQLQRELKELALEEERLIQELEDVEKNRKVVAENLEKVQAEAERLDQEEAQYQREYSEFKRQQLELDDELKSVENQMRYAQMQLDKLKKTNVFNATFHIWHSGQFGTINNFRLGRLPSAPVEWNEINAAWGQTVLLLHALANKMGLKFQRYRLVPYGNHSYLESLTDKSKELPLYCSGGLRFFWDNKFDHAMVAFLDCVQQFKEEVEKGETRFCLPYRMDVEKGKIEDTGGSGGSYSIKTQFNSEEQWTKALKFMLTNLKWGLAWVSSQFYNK

Molecular target: high mobility group box 1 (UniProt P63159)
Experiment: co-IP; HMGB1 and Beclin1 co-immunoprecipitation from cells of the normal control, OGD/R (8 h OGD followed by 24 h reperfusion) and IPOC groups; Beclin1 and HMGB1 detected by western blot

binding: binds
Substance: Beclin1 (from UniProt Q91XJ1 1-448)
